# pEC50: −log10 of the molar value.
# Biological target: T1, hNPR-A (Homo sapiens, UniProt P16066)
# T1 sequence (P16066 33-1061): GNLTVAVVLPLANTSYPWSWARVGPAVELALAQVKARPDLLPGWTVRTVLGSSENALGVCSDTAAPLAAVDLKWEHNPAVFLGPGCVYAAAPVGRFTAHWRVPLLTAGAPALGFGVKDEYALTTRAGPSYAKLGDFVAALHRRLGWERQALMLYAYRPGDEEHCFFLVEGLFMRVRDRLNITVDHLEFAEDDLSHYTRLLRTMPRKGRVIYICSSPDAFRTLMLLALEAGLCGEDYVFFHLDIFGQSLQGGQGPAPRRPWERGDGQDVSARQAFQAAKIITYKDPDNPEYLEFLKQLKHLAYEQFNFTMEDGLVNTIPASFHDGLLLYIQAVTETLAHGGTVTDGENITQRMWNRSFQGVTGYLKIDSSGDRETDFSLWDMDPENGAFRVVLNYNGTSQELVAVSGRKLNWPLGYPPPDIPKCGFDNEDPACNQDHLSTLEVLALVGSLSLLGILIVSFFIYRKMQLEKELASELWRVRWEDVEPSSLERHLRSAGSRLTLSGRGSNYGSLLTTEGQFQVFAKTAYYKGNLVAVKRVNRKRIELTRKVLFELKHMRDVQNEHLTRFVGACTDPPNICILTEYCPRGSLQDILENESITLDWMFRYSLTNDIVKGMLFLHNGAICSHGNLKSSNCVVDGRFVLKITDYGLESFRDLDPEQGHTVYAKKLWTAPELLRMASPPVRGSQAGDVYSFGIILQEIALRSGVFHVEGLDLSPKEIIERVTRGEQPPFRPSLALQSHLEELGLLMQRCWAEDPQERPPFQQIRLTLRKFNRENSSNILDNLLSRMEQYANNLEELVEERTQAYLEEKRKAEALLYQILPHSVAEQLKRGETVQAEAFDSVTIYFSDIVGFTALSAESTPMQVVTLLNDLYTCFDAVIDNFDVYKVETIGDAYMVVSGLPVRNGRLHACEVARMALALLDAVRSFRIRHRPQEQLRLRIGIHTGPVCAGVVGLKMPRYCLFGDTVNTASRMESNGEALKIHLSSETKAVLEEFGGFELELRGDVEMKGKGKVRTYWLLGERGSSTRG
# Test: Accumulation of intracellular cGMP in HEK-293 cells expressing recombinant hNPR-A (EC50)
# Assay type: cell-based
# Protocol: Pelleted cells were resuspended in Hank's Balanced Salt Solution (HBSS) containing 10 mM Hepes (pH 7.4), 5 mM MgCl2, 200 mM L-glutamine, 1 mM 1,10-phenanthroline and BSA (0.5 mg/mL). Following centrifugation, cells were resuspended in the above buffer supplemented with 0.5 mM 3-isobutyl-1-methylxanthine (IBMX). […] The reaction was terminated by lysis of the cells with temperature shock. […] Accumulation of cGMP was measured using the cGMP Flashplate RIA (Perkin-Elmer). Data analysis and EC50 values were determined by using nonlinear regression analysis with GraphPad Prism® software.
smiles,measurement,value
CCCC[C@@H]1NC[C@H](C(=O)N[C@H]2CSSC[C@@H](C(=O)N[C@@H](Cc3ccc(O)cc3)C(=O)N3C[C@H](C(N)=O)NC(=O)[C@@H]3CCCNC(=N)N)NC(=O)[C@H](CO)NC(=O)[C@H]([C@@H](C)CC)NC(=O)[C@H](CCCNC(=N)N)NC(=O)[C@H](CC(=O)O)NC(=O)[C@H](CCCC)NC(=O)[C@H](CCCNC(=N)N)NC(=O)CNC(=O)CNC(=O)[C@H](Cc3ccccc3)NC(=O)[C@H](Cc3c[nH]cn3)NC2=O)NC1=O [1-18],pEC50,9.70

# From US8580747B2, “Cyclic natriuretic peptide constructs” (Palatin Technologies, Inc., priority 2006, dated 2013)
